According to the supplement of paper PMC10849652:
The list shows a part of the results.

Sequences of proteins named here, by UniProt entry; tags and fusion partners are left off. A change or cut given only in a name is not applied to a line headed by its entry.
UniProt A6NDG6: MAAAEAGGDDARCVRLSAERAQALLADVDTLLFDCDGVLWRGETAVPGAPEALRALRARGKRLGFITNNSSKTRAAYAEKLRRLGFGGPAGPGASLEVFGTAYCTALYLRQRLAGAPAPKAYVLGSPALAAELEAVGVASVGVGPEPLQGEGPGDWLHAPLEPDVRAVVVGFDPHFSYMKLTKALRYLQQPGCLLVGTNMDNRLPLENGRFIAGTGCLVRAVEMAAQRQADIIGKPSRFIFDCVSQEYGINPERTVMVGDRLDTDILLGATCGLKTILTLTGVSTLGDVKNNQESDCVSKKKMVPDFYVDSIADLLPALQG
UniProt Q9BZM1: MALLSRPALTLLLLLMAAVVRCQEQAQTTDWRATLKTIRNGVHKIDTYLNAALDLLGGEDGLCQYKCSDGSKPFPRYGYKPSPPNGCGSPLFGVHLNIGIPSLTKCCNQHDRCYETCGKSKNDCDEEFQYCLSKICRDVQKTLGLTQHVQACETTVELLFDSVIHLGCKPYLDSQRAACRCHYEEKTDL
UniProt Q16875: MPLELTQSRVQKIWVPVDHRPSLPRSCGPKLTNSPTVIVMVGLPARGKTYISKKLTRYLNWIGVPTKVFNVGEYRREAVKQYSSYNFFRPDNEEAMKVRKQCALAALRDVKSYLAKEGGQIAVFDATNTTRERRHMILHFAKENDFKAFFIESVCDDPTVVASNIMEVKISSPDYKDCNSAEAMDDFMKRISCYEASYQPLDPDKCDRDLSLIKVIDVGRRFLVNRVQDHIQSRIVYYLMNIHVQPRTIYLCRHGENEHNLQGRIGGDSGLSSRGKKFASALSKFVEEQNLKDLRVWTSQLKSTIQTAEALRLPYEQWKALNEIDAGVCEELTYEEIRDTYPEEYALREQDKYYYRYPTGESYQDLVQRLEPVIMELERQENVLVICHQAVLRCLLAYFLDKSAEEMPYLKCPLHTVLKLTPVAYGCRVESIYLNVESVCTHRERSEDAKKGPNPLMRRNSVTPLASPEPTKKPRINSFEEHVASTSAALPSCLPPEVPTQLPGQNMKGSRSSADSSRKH
UniProt Q99623, whole entry, looked up: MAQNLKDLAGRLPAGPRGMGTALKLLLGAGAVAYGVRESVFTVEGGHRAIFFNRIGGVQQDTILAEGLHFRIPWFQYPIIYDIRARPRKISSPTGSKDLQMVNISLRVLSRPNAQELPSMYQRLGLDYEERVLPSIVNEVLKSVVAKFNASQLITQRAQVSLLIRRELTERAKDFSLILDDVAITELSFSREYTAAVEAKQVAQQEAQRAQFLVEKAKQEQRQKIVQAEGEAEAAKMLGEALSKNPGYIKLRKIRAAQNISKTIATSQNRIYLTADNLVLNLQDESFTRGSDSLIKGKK
UniProt O75167: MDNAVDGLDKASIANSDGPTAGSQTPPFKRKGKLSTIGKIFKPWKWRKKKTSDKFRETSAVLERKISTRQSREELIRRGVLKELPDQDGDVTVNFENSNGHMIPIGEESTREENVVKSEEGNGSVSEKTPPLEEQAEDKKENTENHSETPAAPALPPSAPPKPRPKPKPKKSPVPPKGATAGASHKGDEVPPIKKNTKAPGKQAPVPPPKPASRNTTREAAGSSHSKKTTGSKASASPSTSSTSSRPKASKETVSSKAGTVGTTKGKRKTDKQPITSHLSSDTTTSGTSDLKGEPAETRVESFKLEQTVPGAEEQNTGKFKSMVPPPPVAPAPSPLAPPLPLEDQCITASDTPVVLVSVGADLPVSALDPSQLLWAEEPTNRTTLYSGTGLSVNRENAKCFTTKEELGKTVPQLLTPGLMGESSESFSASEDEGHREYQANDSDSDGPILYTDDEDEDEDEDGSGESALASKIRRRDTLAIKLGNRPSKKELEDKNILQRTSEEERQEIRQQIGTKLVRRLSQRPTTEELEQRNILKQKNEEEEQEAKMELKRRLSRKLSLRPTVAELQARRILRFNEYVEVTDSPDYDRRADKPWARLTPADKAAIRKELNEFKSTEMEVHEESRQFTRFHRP
UniProt Q9NQP4, whole entry, looked up: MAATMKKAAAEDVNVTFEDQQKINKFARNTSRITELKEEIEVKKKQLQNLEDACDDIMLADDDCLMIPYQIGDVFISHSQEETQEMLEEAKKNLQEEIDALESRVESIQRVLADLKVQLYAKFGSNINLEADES
UniProt Q6PCE3: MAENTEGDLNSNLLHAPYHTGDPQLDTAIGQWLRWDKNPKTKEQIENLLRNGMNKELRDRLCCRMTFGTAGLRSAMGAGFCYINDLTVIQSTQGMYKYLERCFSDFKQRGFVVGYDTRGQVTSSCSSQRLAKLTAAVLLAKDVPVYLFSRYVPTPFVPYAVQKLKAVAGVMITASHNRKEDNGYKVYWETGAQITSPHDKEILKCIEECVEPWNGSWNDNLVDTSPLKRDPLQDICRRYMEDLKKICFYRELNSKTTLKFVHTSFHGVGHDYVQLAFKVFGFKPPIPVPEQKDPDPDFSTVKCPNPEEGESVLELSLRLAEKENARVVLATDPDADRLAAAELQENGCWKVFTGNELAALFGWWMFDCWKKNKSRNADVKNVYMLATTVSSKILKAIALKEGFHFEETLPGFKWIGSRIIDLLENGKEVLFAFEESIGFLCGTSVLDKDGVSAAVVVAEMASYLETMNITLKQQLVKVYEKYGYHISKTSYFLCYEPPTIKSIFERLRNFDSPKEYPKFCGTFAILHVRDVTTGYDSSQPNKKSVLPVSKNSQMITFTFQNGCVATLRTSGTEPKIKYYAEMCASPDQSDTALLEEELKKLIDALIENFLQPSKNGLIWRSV
UniProt P35232: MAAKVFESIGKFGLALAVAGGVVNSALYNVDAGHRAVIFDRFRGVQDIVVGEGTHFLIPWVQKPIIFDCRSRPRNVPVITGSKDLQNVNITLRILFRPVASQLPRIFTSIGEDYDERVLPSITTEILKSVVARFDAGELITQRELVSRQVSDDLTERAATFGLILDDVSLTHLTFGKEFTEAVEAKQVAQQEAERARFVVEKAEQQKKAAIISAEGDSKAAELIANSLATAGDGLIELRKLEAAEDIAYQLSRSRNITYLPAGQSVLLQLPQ
UniProt P17858: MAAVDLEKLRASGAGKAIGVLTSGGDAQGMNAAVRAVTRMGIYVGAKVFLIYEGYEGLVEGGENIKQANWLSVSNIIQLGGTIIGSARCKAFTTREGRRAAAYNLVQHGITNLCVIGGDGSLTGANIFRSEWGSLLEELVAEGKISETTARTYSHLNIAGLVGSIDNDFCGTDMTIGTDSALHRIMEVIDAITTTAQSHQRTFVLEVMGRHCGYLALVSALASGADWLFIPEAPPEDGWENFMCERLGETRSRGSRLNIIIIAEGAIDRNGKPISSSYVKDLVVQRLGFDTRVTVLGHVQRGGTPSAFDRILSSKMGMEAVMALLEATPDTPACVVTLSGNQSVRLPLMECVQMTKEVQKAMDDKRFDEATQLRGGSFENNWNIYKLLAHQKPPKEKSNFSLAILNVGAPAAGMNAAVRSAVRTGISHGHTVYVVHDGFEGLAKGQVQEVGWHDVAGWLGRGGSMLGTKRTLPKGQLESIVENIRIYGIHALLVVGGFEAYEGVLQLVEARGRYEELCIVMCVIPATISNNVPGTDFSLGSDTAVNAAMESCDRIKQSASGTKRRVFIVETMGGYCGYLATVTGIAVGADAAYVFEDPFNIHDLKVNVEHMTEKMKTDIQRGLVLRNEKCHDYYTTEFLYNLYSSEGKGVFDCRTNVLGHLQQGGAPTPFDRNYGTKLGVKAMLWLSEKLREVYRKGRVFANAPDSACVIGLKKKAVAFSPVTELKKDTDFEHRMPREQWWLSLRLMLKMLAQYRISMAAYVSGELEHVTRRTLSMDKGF
UniProt Q9UHV9, whole entry, looked up: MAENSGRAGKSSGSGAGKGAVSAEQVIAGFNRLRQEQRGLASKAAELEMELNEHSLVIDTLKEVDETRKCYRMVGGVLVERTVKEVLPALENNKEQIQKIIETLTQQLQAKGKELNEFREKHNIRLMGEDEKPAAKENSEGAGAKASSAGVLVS
UniProt Q8IWS0: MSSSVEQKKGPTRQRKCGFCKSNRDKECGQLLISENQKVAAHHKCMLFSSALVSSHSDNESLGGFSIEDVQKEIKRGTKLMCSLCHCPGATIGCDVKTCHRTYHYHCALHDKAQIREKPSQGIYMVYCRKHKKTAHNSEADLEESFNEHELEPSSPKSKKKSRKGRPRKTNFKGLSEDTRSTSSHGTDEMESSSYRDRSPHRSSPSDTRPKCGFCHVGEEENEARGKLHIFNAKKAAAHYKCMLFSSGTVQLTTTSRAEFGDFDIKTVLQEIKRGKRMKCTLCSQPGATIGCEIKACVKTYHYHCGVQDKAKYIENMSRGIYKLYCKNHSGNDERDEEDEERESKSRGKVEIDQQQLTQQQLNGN
UniProt Q8IZ21: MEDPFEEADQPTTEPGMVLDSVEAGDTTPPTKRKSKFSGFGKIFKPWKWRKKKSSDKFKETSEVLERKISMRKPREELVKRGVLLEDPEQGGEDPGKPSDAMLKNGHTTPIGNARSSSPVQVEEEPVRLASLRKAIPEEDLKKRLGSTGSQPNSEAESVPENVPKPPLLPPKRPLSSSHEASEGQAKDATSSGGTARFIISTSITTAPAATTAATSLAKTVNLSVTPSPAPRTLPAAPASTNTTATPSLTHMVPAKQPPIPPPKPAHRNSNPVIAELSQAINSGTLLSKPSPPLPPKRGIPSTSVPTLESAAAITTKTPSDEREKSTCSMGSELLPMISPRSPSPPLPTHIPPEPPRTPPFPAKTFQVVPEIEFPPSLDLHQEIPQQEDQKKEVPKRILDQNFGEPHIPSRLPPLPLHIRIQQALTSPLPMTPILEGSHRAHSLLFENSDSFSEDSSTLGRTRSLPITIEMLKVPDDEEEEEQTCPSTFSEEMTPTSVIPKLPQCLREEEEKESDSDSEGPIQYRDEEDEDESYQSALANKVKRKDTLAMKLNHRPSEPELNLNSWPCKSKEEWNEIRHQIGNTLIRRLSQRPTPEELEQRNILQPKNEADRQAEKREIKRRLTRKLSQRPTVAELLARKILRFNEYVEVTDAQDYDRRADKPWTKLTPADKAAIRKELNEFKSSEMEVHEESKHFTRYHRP
UniProt Q9Y263: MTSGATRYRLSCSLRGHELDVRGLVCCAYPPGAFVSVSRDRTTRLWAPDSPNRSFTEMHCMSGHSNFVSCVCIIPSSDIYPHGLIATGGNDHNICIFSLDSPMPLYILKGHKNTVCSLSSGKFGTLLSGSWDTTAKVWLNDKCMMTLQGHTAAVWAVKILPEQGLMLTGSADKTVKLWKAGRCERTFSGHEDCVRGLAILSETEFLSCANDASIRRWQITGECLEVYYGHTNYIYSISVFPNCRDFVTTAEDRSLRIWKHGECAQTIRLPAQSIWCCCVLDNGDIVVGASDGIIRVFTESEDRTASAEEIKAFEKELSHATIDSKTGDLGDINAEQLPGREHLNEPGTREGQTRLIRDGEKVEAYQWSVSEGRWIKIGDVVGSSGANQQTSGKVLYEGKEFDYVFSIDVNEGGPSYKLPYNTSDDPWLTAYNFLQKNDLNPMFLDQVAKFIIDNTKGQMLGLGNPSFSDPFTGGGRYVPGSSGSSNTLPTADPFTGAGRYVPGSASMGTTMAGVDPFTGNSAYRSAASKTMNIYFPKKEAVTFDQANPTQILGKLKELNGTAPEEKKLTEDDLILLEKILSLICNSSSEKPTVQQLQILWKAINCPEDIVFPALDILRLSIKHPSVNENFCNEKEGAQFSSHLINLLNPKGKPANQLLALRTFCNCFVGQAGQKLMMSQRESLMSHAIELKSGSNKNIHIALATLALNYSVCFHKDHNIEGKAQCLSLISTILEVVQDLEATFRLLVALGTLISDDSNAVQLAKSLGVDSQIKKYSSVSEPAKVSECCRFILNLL
UniProt Q32NB8: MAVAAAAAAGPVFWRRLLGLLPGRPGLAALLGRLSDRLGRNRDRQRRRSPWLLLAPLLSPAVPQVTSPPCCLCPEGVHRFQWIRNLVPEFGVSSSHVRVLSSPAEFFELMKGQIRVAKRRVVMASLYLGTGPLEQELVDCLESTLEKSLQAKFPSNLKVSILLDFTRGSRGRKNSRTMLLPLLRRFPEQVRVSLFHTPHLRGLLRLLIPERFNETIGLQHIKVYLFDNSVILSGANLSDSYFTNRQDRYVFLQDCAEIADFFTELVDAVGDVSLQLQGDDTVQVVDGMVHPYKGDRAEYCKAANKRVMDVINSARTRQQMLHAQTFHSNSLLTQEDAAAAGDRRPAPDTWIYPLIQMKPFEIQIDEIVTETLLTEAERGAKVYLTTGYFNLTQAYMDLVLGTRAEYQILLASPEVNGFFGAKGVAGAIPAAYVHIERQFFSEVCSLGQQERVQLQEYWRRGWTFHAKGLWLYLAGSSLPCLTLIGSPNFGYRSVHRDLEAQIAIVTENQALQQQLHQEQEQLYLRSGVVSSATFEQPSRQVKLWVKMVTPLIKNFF
UniProt Q9GZP4: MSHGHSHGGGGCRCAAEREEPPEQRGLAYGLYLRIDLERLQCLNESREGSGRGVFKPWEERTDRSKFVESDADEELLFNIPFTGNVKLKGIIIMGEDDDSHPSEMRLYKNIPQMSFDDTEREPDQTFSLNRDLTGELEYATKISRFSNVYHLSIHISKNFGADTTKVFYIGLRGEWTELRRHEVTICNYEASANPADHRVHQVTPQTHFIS

compound: CN1CCC(CNc2ccc3ncc(-c4cccc(OC(F)(F)F)c4)n3n2)CC1; test: log2 fold change, soluble protein after heating vs DMSO (PISA); higher = thermal stabilisation; K562 cells, 10 uM, 30 min; active = over 0.2 and 3.5 SD of the protein, either way, in both replicates (recomputed)
In short: (§1)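 For each measurement, 10 μM compound was applied for 30 min to K562 cells at 2×10^6 cells/mL. Aliquots were heated for 3 min across 48°C-58°C, pooled, and extracted in PBS with 0.5% NP-40 at 4°C; the supernatant after 21,000xg for 90 min was soluble protein. This was quantified by TMTpro 16plex LC-MS/MS with channel sums equalised, and thermal stability was reported relative to control samples from duplicates, on a log2 fold-change scale.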

Target	log2 fold change
PIGW (UniProt Q7Z7B1)	inactive: -0.203
PGP (UniProt A6NDG6)	inactive: -0.011
PFKM isoform 3 (UniProt P08237)	inactive: -0.044
PLA2G12A (UniProt Q9BZM1)	inactive: -0.122
PFKFB3 isoform 4 (UniProt Q16875)	inactive: -0.115
PHB2 (UniProt Q99623)	inactive: 0.046
PGM2 (UniProt Q96G03)	inactive: -0.004
PIGBOS1, A0A0B4J2F0	inactive: 0.084
PHACTR2 isoform 4 (UniProt O75167)	inactive: 0.108
PKLR (UniProt P30613)	inactive: -0.069
PHKB isoform 3 (UniProt Q93100)	inactive: -0.05
PFDN4 (UniProt Q9NQP4)	inactive: -0.023
PGM2L1 (UniProt Q6PCE3)	inactive: -0.086
PHF19 isoform 2 (UniProt Q5T6S3)	inactive: -0.011
PGAM1 (UniProt P18669)	inactive: -0.001
PLCH1 (UniProt Q4KWH8)	inactive: 0.024

Target	log2 fold change
PFKP (UniProt Q01813)	inactive: -0.008
PHPT1 (UniProt Q9NRX4)	inactive: -0.076
PHB (UniProt P35232)	inactive: 0.03
PFKFB4 (UniProt Q16877)	inactive: 0.008
PIK3R2 (UniProt O00459)	inactive: 0.128
PFKL isoform 2 (UniProt P17858)	inactive: -0.047
PFDN2 (UniProt Q9UHV9)	inactive: 0.013
PHF6 (UniProt Q8IWS0)	inactive: 0.236
PHF3 (UniProt Q92576)	inactive: 0.098
PHACTR4 isoform 2 (UniProt Q8IZ21)	inactive: -0.143
PEX6 (UniProt Q13608)	inactive: -0.043
PLAA (UniProt Q9Y263)	inactive: -0.043
PGS1 (UniProt Q32NB8)	inactive: 0.05
PI4KA (UniProt P42356)	inactive: 0.179
PITHD1 (UniProt Q9GZP4)	inactive: -0.061
PLEC (UniProt Q15149)	inactive: 0.014

compound: CN1CCN(CCOc2cc(OC3CCOCC3)c3c(Nc4c(Cl)ccc5c4OCO5)ncnc3c2)CC1 [saracatinib]; test: as above
In short: as §1

Target	log2 fold change
PIGW (UniProt Q7Z7B1)	inactive: -0.061
PGP (UniProt A6NDG6)	inactive: 0.023
PFKM isoform 3 (UniProt P08237)	inactive: 0.025
PLA2G12A (UniProt Q9BZM1)	inactive: -0.299
PFKFB3 isoform 4 (UniProt Q16875)	inactive: 0.034
PHB2 (UniProt Q99623)	inactive: 0.003
PGM2 (UniProt Q96G03)	inactive: 0.081
PIGBOS1, A0A0B4J2F0	inactive: 0
PHACTR2 isoform 4 (UniProt O75167)	inactive: 0.018
PKLR (UniProt P30613)	inactive: 0.028
PHKB isoform 3 (UniProt Q93100)	inactive: -0.081
PFDN4 (UniProt Q9NQP4)	inactive: 0.031
PGM2L1 (UniProt Q6PCE3)	inactive: 0.086
PHF19 isoform 2 (UniProt Q5T6S3)	inactive: -0.009
PGAM1 (UniProt P18669)	inactive: 0.046
PLCH1 (UniProt Q4KWH8)	inactive: -0.059

Target	log2 fold change
PFKP (UniProt Q01813)	inactive: 0.009
PHPT1 (UniProt Q9NRX4)	inactive: 0.008
PHB (UniProt P35232)	inactive: 0.035
PFKFB4 (UniProt Q16877)	inactive: -0.003
PIK3R2 (UniProt O00459)	inactive: -0.059
PFKL isoform 2 (UniProt P17858)	inactive: -0.019
PFDN2 (UniProt Q9UHV9)	inactive: 0.005
PHF6 (UniProt Q8IWS0)	inactive: -0.081
PHF3 (UniProt Q92576)	inactive: -0.123
PHACTR4 isoform 2 (UniProt Q8IZ21)	inactive: 0.062
PEX6 (UniProt Q13608)	inactive: 0.013
PLAA (UniProt Q9Y263)	inactive: 0.009
PGS1 (UniProt Q32NB8)	inactive: -0.066
PI4KA (UniProt P42356)	inactive: -0.056
PITHD1 (UniProt Q9GZP4)	inactive: 0.049
PLEC (UniProt Q15149)	inactive: -0.078

compound: CN1CCN(c2nc(C3=C(c4c[nH]c5ccccc45)C(=O)NC3=O)c3ccccc3n2)CC1 [sotrastaurin]; test: as above
In short: as §1

Target	log2 fold change
PIGW (UniProt Q7Z7B1)	inactive: 0.009
PGP (UniProt A6NDG6)	inactive: 0.008
PFKM isoform 3 (UniProt P08237)	inactive: 0.034
PLA2G12A (UniProt Q9BZM1)	inactive: -0.072
PFKFB3 isoform 4 (UniProt Q16875)	inactive: -0.026
PHB2 (UniProt Q99623)	inactive: 0.022
PGM2 (UniProt Q96G03)	inactive: 0.02
PIGBOS1, A0A0B4J2F0	inactive: 0.08
PHACTR2 isoform 4 (UniProt O75167)	inactive: 0.201
PKLR (UniProt P30613)	inactive: 0.019
PHKB isoform 3 (UniProt Q93100)	inactive: 0.009
PFDN4 (UniProt Q9NQP4)	inactive: 0.02
PGM2L1 (UniProt Q6PCE3)	inactive: 0.032
PHF19 isoform 2 (UniProt Q5T6S3)	inactive: -0.025
PGAM1 (UniProt P18669)	inactive: 0.022
PLCH1 (UniProt Q4KWH8)	inactive: 0.15

Target	log2 fold change
PFKP (UniProt Q01813)	inactive: 0.019
PHPT1 (UniProt Q9NRX4)	inactive: 0.017
PHB (UniProt P35232)	inactive: 0.001
PFKFB4 (UniProt Q16877)	inactive: 0.044
PIK3R2 (UniProt O00459)	inactive: -0.025
PFKL isoform 2 (UniProt P17858)	inactive: 0.071
PFDN2 (UniProt Q9UHV9)	inactive: 0.037
PHF6 (UniProt Q8IWS0)	inactive: 0.012
PHF3 (UniProt Q92576)	inactive: -0.187
PHACTR4 isoform 2 (UniProt Q8IZ21)	inactive: 0.094
PEX6 (UniProt Q13608)	inactive: 0.089
PLAA (UniProt Q9Y263)	inactive: -0.061
PGS1 (UniProt Q32NB8)	inactive: -0.057
PI4KA (UniProt P42356)	inactive: -0.134
PITHD1 (UniProt Q9GZP4)	inactive: 0.016
PLEC (UniProt Q15149)	inactive: 0.016
